These are yes or no findings as the source states them, for the method shown. Some binding calls cover weakened binding; strength is not graded here. For some of these results: Where a sequence is shown, tags or fusion partners need not be part of it.
What was measured:
[1] = molecular target: T1, CycD3 (Arath; CycD3; 1) in DB-vector (Arabidopsis) (UniProt P04386+P42753); assay: yeast two-hybrid
[2] = molecular target: T2, CycD2 (Arath; CycD2; 1) in DB-vector (Arabidopsis) (UniProt P04386+P42752); assay: yeast two-hybrid
[3] = molecular target: T3, CycD1 (Arath; CycD1; 1) in DB-vector (A. thaliana) (UniProt P04386+P42751); assay: yeast two-hybrid
[4] = molecular target: T1, CycD3 (Arath; CycD3; 1) in DB-vector (Arabidopsis); assay: yeast two-hybrid (MaV203), X-Gal filter assay for β-galactosidase; AD construct x BD construct
[5] = molecular target: T2, CycD2 (Arath; CycD2; 1) in DB-vector (Arabidopsis); assay: as above
[6] = molecular target: T3, CycD1 (Arath; CycD1; 1) in DB-vector (A. thaliana); assay: as above
[7] = molecular target: T4, Cdc2a (Cdc2aAt) in DB-vector (Arabidopsis) (UniProt P04386+P24100); assay: yeast two-hybrid
[8] = molecular target: T1, CycD3 (Arath; CycD3; 1) in DB-vector (Arabidopsis); assay: yeast two-hybrid, X-gal filter assay; ICK1 in GAL4-AD vector, partner in DB vector
[9] = molecular target: T2, CycD2 (Arath; CycD2; 1) in DB-vector (Arabidopsis); assay: as above
[10] = molecular target: T4, Cdc2a (Cdc2aAt) in DB-vector (Arabidopsis); assay: as above
[11] = molecular target: T3, CycD1 (Arath; CycD1; 1) in DB-vector (A. thaliana); assay: as above
[12] = molecular target: T4, Cdc2a (Cdc2aAt) in DB-vector (Arabidopsis); assay: yeast two-hybrid (MaV203), X-Gal filter assay for β-galactosidase; AD construct x BD construct
[13] = molecular target: T5, Cdc2b (Cdc2bAt) in DB-vector (A. thaliana) (UniProt P04386+P25859); assay: yeast two-hybrid
[14] = molecular target: T5, Cdc2b (Cdc2bAt) in DB-vector (A. thaliana); assay: yeast two-hybrid (MaV203), X-Gal filter assay for β-galactosidase; AD construct x BD construct

The chains behind the UniProt entries cited, without tags or fusion partners. Where a name states a change or a piece, a line headed by the entry shows the natural chain unless it says otherwise.
UniProt P04386: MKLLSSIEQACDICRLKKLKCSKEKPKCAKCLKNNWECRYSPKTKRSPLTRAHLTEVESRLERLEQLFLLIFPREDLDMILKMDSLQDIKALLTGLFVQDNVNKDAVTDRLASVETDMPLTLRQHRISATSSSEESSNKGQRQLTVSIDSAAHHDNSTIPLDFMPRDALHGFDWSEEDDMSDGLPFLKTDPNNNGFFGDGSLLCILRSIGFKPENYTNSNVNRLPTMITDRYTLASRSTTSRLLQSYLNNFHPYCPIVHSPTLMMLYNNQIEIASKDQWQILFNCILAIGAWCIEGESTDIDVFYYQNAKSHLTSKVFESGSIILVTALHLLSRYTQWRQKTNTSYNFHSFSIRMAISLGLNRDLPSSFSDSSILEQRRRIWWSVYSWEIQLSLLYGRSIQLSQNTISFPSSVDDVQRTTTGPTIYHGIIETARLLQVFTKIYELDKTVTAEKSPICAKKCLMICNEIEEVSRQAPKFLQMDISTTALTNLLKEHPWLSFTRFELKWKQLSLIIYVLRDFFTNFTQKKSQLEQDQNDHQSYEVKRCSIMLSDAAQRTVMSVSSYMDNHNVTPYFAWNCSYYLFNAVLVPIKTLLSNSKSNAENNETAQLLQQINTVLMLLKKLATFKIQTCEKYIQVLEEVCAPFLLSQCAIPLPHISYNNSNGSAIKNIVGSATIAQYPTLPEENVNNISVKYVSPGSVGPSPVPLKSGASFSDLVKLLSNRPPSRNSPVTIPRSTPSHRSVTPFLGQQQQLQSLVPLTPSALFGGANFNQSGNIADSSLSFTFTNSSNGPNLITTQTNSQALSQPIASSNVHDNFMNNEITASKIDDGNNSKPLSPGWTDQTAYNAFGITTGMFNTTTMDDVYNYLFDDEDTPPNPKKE
UniProt P42753: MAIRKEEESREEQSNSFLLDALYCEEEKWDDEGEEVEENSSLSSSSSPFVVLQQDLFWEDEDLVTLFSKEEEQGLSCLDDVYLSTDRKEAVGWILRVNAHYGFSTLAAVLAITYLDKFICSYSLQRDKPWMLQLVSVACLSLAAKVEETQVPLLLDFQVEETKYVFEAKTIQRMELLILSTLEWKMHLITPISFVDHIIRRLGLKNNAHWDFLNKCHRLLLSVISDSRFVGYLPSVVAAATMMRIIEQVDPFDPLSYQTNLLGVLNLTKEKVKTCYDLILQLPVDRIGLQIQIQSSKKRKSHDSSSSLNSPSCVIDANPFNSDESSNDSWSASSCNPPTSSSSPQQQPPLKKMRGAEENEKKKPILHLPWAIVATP
UniProt P42752: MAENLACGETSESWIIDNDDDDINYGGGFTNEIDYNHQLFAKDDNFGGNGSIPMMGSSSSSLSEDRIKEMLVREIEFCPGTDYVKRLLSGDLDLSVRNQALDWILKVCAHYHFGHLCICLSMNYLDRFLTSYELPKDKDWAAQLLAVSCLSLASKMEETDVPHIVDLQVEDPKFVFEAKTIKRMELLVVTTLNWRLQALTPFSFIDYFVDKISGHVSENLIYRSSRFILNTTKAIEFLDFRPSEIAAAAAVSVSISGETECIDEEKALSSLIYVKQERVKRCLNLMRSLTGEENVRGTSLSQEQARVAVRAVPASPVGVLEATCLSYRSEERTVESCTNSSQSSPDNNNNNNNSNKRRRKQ
UniProt P42751: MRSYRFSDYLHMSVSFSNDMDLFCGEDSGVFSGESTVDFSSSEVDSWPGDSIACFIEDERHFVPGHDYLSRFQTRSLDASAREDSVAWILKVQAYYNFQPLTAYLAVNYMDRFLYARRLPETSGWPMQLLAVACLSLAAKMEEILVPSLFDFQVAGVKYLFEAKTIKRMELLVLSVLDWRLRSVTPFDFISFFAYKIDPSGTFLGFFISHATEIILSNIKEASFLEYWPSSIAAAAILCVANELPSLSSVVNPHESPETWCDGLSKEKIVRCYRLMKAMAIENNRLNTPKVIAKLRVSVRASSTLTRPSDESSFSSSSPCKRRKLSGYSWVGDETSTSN
UniProt P24100: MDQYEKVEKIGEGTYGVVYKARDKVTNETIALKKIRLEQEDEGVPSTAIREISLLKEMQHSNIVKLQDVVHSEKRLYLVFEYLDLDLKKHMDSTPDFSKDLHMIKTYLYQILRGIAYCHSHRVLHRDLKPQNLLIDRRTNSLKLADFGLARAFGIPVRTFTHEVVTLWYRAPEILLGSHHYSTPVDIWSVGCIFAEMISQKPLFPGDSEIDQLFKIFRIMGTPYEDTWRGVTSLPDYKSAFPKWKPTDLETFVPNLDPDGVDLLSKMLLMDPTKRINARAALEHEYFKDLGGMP
UniProt P25859: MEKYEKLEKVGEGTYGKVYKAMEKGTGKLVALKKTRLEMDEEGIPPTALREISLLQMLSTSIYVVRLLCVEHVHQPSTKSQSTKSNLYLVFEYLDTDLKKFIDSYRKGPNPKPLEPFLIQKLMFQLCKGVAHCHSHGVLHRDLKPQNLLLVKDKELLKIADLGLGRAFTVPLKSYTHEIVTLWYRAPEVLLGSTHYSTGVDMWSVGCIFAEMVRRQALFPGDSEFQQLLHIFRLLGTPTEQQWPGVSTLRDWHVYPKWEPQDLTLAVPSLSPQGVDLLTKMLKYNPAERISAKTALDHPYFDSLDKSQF

Measured: binding

B1: ICN6 (AD construct) (protein, not shown: large carriers)
chain: LSPEKTIMSLREMSETKPKRDSEYEGSNIKRMRLDDDDDVLRSPTRTLSSSSSSSLAYSVSDSGGFCSVALSEEEDDHLSSSISSGCSSSETNEIATRLPFSDLEAHEISETEISTLLTNNFRKQGISSSENLGETAEMDSATTEMRDQRKTEKKKKMEKSPTQAELDDFFSAAERYEQKRFTEKYNYDIVNDTPLEGRYQWVSLKP
binds: [1] | [2] | [3] | [4] | [5] | [6]

B2: ICN7 (AD construct) (protein, not shown: large carriers)
chain: MGKYMKKSKITGDISVMEVSKATAPSPGVRTRAAKTLALKRLNSSAADSALPNDSSCYLQLRSRRLEKPSSLIEPKQPPRVHRSGIKESGSRSRVDSVNSAPVAQSSNEDECFDNFVSVQVSCGENSLGFESRHSTRESTPCNFVEDMEIMVTPGSSTRSMCRATKEYTREQDNVIPTTSEMEEFFAYAEQQQQRLFMEKYNFDIVNDIPLSGRYEWVQVKP
binds: [1] | [2] | [3] | [4] | [5] | [6]

B3: ICN2 (AD construct) (protein, not shown: large carriers)
chain: KKKQRERAHKNPREKKMSERKRELAEEASSTSFSPLKKTKLNDSSDSSPDSHDVIVFAVSSSSVASSAALASDECSVTIGGEESDQSSSISSGCFTSESKEIAKNSSSFGVDLEDHQIETETETSTFITSNFRKETSPVSEGLGETTTEMESSSATKRKQPGVRKTPTAAEIEDLFSELESQDDKKKQFIEKYNFDIVNDEPLEGRYKWDRL
binds: [1] | [3] | [4] | [6]

B4: ICK2 (AD construct) (protein, not shown: large carriers)
chain: MAAVRRRERDVVEENGVTTTTVKRRKMEEEVDLVESRIILSPCVQATNRGGIVARNSAGASETSVVIVRRRDSPPVEEQCQIEEEDSSVSCCSTSEEKSKRRIEFVDLEENNGDDRETETSWIYDDLNKSEESMNMDSSSVAVEDVESRRRLRKSLHETVKEAELEDFFQVAEKDLRNKLLECSMKYNFDFEKDEPLGGGRYEWVKLNP
binds: [1] | [2] | [3] | [4] | [6]

B5: ICN8 (AD construct) (protein, not shown: large carriers)
chain: MGKYIRKSKIDGAGAGAGGGGGGGGGGESSIALMDVVSPSSSSSLGVLTRAKSLALQQQQQRCLLQKPSSPSSLPPTSASPNPPSKQKMKKKQQQMNDCGSYLQLRSRRLQKKPPIVVIRSTKRRKQQRRNETCGRNPNPRSNLDSIRGDGSRSDSVSESVVFGKDKDLISEINKDPTFGQNFFDLEEEHTQSFNRTTRESTPCSLIRRPEIMTTPGSSTKLNICVSESNQREDSLSRSHRRRPTTPEMDEFFSGAEEEQQKQFIEKYNFDPVNEQPLPGRFEWTKVDD
binds: [1] | [2] | [3] | [4] | [5] | [6]

B6: ICK1 in a GAL4-activation domain vector (protein, not shown: large carriers)
chain: MVRKYRKAKGIVEAGVSSTYMQLRSRRIVYVRSEKSSSVSVVGDNGVSSSCSGSNEYKKKELIHLEEEDKDGDTETSTYRRGTKRKLFENLREEEKEELSKSMENYSSEFESAVKESLDCCCSGRKTMEETVTAEEEEKAKLMTEMPTESEIEDFFVEAEKQLKEKFKKKYNFDFEKEKPLEGRYEWVKLE
not listed: [13] | [14]
binds: all other assays above

B7: CKS1At (AD construct) (protein, UniProt O23249 1-87, looked up, not shown: large carriers)
chain: MGQIQYSEKYFDDTFEYRHVVLPPEVAKLLPKNRLLSENEWRAIGVQQSRGWVHYAVHRPEPHIMLFRRPLNYQQQQENQAQNMLVK
binds: [13] | [7] | [14] | [12]

From patent US20040098763A1
